Results deposited as PubChem BioAssay AID493246 (Drosophila RNAi Screening Center, 2011).

- Purpose: 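Genes fly cells need to grow and stay alive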 (primary screen)
- Cell system: Drosophila Kc and S2R+ cells
- Knock-down reagent: long dsRNA against Drosophila genes
- Read-out: 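Cell number per well after knock-down, printed as raw plate values; calls were based on per-plate z-scores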
- Scale: Kc cell number and S2R+ cell number: higher = more cells remaining
- Active means: 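Active when the per-plate z-score of cell number is 3 or more in the direction of fewer cells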
In all, the deposit lists about 21,000 reagents; shown is a random part of those with a known target gene and a result. In the full data, 429 (2%) are marked active. 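Values are raw and not normalised between plates; calls rest on per-plate z-scores that were not deposited.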 Reagent sequences are not shown. Not given: the amount of reagent, the time to read-out.

{"Gene":"Sec31","PubChem SID":"SID104186923","Kc cell number, rep 1":1.44e6,"Kc cell number, rep 2":1.45e6,"S2R+ cell number, rep 1":1.19e6,"S2R+ cell number, rep 2":1.29e6,"call":"inactive"}
{"Gene":"CG6753","PubChem SID":"SID104195900","Kc cell number, rep 1":1.59e6,"Kc cell number, rep 2":1.72e6,"S2R+ cell number, rep 1":1.23e6,"S2R+ cell number, rep 2":1.40e6,"call":"inactive"}
{"Gene":"CG12662","PubChem SID":"SID104197657","Kc cell number, rep 1":1.50e6,"Kc cell number, rep 2":1.51e6,"S2R+ cell number, rep 1":1.11e6,"S2R+ cell number, rep 2":1.23e6,"call":"inactive"}
{"Gene":"CG34406 (retired record)","PubChem SID":"SID104180315","Kc cell number, rep 1":1.25e6,"Kc cell number, rep 2":1.30e6,"S2R+ cell number, rep 1":8.92e5,"S2R+ cell number, rep 2":1.03e6,"call":"inactive"}
{"Gene":"CG34406 (retired record)","PubChem SID":"SID104180398","Kc cell number, rep 1":1.62e6,"Kc cell number, rep 2":1.54e6,"S2R+ cell number, rep 1":1.21e6,"S2R+ cell number, rep 2":1.37e6,"call":"inactive"}
{"Gene":"CG15155","PubChem SID":"SID104182248","Kc cell number, rep 1":1.64e6,"Kc cell number, rep 2":1.61e6,"S2R+ cell number, rep 1":1.37e6,"S2R+ cell number, rep 2":1.54e6,"call":"inactive"}
{"Gene":"CG32795","PubChem SID":"SID104198401","Kc cell number, rep 1":1.47e6,"Kc cell number, rep 2":1.45e6,"S2R+ cell number, rep 1":9.90e5,"S2R+ cell number, rep 2":1.07e6,"call":"inactive"}
{"Gene":"CG32795","PubChem SID":"SID104198402","Kc cell number, rep 1":1.46e6,"Kc cell number, rep 2":1.47e6,"S2R+ cell number, rep 1":9.94e5,"S2R+ cell number, rep 2":1.11e6,"call":"inactive"}
{"Gene":"CG5225","PubChem SID":"SID104195534","Kc cell number, rep 1":1.38e6,"Kc cell number, rep 2":1.54e6,"S2R+ cell number, rep 1":1.04e6,"S2R+ cell number, rep 2":1.17e6,"call":"inactive"}
{"Gene":"oc","PubChem SID":"SID104198600","Kc cell number, rep 1":1.63e6,"Kc cell number, rep 2":1.59e6,"S2R+ cell number, rep 1":1.07e6,"S2R+ cell number, rep 2":1.23e6,"call":"inactive"}
{"Gene":"CG12540","PubChem SID":"SID104199263","Kc cell number, rep 1":1.53e6,"Kc cell number, rep 2":1.56e6,"S2R+ cell number, rep 1":1.14e6,"S2R+ cell number, rep 2":1.21e6,"call":"inactive"}
{"Gene":"Dpm1","PubChem SID":"SID104181810","Kc cell number, rep 1":1.51e6,"Kc cell number, rep 2":1.71e6,"S2R+ cell number, rep 1":1.30e6,"S2R+ cell number, rep 2":3.81e5,"call":"inactive"}

Copied from the entries so far, 2 entries:
{"Gene":"oc","PubChem SID":"SID104198600","Kc cell number, rep 1":1.63e6,"Kc cell number, rep 2":1.59e6,"S2R+ cell number, rep 1":1.07e6,"S2R+ cell number, rep 2":1.23e6,"call":"inactive"}
{"Gene":"CG12540","PubChem SID":"SID104199263","Kc cell number, rep 1":1.53e6,"Kc cell number, rep 2":1.56e6,"S2R+ cell number, rep 1":1.14e6,"S2R+ cell number, rep 2":1.21e6,"call":"inactive"}
